Test results: the supplement of paper PMC11006884
The list shows a part of the results, in another mix than the full data.

Chains of the proteins cited; added tags and fusions are not shown. Lines headed by an entry give the natural chain unless they say otherwise; changes in a name come on top.
UniProt Q9ULT8: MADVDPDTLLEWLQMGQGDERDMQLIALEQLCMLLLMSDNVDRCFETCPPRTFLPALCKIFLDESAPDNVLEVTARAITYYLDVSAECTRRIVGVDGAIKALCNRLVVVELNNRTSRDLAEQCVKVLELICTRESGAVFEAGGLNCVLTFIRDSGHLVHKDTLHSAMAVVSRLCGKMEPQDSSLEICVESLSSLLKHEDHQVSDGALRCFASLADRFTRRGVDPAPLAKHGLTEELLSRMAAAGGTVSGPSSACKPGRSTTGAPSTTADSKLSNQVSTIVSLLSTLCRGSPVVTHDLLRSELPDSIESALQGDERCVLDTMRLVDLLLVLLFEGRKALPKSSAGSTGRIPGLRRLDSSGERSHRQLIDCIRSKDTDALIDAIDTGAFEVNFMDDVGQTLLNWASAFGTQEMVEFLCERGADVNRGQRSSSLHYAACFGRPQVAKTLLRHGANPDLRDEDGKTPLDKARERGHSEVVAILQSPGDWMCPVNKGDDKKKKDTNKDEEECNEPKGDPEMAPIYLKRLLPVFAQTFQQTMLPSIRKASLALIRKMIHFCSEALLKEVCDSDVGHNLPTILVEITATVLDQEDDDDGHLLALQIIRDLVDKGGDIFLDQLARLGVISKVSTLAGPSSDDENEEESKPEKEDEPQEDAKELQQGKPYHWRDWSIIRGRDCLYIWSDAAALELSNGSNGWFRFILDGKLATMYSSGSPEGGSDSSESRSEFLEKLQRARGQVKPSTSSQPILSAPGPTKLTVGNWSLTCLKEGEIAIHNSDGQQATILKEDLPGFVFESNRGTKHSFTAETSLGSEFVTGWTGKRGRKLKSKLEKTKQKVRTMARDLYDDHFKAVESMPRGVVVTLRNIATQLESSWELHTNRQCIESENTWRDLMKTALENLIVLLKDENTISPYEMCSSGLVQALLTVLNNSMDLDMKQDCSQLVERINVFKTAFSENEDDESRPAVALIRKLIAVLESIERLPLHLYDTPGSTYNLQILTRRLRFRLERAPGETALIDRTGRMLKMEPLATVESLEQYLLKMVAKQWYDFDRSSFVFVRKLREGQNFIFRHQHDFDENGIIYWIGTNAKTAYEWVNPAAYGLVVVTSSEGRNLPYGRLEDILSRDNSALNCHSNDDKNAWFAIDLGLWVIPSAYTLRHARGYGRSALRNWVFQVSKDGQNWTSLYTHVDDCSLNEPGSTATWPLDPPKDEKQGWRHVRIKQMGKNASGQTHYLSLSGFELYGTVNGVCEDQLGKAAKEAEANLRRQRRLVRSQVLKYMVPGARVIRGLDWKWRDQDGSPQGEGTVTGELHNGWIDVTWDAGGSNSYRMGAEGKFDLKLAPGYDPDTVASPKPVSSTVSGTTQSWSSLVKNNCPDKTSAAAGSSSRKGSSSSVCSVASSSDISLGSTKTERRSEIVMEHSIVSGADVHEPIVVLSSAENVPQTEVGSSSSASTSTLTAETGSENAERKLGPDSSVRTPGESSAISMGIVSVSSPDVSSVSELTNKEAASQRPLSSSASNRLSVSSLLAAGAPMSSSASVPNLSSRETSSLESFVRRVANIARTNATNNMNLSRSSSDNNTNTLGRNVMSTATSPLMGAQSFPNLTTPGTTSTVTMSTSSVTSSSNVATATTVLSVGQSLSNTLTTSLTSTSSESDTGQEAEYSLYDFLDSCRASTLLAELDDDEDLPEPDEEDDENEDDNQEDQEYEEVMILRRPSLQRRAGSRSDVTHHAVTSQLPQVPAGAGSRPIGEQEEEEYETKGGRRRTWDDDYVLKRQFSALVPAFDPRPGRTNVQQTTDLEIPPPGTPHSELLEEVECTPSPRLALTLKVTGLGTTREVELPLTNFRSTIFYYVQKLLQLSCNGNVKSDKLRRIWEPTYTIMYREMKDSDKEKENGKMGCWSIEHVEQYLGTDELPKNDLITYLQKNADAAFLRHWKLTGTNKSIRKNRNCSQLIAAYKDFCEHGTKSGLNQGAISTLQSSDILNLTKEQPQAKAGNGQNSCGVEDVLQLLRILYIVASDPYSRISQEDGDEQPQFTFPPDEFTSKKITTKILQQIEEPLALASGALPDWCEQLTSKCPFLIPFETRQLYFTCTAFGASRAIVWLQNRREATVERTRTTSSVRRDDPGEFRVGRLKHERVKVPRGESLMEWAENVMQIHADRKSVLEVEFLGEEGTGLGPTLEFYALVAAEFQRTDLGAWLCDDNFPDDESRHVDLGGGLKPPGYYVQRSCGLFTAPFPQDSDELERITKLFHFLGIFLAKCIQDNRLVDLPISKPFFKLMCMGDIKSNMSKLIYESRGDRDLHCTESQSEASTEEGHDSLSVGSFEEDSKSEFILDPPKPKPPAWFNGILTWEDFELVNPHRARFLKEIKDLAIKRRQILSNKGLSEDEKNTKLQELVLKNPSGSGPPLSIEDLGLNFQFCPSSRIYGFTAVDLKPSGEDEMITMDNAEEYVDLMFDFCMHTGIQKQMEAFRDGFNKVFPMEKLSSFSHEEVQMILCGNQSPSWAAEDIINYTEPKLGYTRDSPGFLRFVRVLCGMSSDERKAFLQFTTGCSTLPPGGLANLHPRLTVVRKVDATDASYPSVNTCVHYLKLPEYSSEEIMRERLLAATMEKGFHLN
UniProt Q9UHJ6: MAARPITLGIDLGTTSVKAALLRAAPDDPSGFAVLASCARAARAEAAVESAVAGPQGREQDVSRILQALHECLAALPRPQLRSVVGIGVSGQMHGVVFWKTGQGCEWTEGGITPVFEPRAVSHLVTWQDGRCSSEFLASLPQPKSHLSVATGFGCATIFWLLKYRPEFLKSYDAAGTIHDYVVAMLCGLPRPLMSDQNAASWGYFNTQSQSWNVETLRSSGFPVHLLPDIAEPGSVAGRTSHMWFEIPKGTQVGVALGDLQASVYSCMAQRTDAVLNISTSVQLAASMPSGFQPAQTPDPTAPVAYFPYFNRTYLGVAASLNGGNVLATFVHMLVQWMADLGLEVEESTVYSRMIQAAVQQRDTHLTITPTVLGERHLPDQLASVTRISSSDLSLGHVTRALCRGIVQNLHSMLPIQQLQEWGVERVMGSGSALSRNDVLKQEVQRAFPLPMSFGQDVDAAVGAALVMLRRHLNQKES
UniProt Q9UHI6: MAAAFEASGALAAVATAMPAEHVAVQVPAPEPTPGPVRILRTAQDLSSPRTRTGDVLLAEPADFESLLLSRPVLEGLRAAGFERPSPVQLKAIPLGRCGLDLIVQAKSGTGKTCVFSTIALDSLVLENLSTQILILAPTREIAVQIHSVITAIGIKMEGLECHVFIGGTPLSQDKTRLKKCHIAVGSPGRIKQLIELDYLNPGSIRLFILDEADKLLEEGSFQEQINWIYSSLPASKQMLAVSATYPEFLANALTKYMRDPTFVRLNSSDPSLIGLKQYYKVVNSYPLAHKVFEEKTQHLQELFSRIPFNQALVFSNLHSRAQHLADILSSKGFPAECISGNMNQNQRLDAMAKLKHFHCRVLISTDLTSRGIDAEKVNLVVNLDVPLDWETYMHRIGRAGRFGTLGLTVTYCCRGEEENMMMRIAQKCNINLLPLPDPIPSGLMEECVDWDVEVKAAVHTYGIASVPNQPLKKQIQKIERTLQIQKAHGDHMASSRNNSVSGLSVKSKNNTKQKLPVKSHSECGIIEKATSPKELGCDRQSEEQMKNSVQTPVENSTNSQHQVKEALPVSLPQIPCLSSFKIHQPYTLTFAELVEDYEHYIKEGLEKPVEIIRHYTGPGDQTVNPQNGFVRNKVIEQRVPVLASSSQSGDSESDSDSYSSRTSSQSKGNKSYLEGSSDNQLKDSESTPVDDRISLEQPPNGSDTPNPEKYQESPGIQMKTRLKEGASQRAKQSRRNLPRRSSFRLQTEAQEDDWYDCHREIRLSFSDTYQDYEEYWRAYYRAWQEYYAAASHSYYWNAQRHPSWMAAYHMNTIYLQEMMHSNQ
UniProt Q9UJA5: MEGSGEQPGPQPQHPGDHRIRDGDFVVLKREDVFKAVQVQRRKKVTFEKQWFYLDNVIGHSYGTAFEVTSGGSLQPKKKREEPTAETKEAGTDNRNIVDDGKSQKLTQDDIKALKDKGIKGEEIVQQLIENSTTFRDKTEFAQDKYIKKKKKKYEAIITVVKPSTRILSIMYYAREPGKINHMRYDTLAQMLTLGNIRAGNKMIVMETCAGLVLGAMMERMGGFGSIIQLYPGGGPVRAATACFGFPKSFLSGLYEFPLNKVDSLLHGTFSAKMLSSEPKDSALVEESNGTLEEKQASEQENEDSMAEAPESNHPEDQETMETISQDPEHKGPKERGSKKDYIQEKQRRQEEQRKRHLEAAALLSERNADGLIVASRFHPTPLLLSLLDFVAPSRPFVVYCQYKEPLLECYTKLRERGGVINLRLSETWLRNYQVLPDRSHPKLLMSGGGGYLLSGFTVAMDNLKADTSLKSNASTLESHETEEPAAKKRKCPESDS
UniProt Q9UJF2: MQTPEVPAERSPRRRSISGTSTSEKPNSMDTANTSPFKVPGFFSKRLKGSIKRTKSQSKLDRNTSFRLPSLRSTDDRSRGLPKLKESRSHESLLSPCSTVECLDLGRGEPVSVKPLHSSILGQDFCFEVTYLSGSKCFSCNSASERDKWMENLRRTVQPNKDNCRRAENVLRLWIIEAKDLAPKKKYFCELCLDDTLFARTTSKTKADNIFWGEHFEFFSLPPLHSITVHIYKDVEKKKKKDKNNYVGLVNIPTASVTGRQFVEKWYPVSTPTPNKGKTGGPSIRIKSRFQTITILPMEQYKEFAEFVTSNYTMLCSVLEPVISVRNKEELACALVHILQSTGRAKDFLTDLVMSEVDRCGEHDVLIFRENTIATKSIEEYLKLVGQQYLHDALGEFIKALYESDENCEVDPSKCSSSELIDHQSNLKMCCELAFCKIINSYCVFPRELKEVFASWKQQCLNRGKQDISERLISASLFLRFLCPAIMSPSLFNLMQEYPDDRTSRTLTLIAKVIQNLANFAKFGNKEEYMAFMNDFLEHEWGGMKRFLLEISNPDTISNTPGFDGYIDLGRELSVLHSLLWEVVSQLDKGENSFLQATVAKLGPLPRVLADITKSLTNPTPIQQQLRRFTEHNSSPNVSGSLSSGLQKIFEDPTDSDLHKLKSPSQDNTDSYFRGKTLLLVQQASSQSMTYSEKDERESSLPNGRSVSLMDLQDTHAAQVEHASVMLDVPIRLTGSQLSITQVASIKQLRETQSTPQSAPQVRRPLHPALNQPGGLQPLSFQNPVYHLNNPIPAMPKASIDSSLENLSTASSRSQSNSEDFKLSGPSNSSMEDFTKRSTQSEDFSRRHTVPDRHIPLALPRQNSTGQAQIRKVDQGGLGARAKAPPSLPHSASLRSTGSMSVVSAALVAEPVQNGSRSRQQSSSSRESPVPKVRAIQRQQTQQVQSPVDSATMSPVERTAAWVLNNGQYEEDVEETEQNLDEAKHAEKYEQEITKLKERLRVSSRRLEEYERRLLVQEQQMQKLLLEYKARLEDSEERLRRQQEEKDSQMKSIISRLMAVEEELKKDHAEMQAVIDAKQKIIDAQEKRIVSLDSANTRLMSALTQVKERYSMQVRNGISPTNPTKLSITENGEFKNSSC
UniProt Q9Y483: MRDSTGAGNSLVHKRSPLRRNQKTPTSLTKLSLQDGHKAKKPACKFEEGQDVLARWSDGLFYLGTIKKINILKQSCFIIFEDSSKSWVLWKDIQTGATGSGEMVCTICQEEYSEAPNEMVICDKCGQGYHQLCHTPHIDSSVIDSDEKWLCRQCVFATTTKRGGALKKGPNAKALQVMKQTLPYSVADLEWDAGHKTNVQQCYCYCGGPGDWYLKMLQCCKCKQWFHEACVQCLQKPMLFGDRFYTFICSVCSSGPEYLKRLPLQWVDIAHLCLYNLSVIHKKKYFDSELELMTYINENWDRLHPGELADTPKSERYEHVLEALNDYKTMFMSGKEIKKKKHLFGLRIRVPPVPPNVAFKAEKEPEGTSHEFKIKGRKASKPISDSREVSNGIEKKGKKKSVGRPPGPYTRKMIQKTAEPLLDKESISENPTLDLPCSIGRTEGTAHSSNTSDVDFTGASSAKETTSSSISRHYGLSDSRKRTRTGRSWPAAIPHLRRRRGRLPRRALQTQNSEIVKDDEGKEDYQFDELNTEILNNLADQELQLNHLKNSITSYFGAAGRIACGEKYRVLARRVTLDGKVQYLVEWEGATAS
UniProt Q9Y305: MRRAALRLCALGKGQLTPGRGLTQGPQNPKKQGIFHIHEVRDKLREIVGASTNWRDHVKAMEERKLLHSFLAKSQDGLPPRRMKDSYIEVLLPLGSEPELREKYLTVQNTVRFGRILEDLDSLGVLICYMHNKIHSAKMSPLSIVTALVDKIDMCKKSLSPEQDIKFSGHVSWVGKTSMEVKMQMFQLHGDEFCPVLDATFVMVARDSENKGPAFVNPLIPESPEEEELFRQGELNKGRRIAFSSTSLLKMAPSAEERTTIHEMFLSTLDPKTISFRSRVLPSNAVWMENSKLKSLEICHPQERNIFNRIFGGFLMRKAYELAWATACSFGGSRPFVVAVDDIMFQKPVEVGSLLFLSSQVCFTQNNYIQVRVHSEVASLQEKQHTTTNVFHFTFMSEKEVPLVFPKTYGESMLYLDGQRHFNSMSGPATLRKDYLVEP

These targets were tested with COC(=O)C#Cc1ccccc1 [methyl 3-phenylpropiolate] (assay: log2 ratio of iodoacetamide-alkyne labeling of the cysteine site, DMSO over compound (competition); higher = stronger covalent engagement of the cysteine by the compound, active = 1 or more). Details: 500 µM; treatment time 1 h; system: HEK293T cell lysate.
In short: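 Three replicates, each with duplicate channels, were prepared from HEK293T lysate (2 mg/mL) treated with vehicle or electrophile at 500 µM for 1 h at ambient temperature. Iodoacetamide alkyne was then applied for 1 h, and samples were clicked to sCIP-TMT reagents, pooled, trypsin-digested overnight at 37 °C, enriched on streptavidin, acid-eluted and analysed on Orbitrap Eclipse LC-MS/MS with FAIMS, with FragPipe quantification. The log2 competition ratio per cysteine is the mean control-channel divided by the mean compound-channel reporter intensity. Cysteines quantified in only one replicate were left out.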

**Q.** For DBNL C127 (UniProt Q9UJU6), which “log2 ratio of iodoacetamide-alkyne labeling” value (shortened to “log2 ratio”) is on record?
**A.** inactive: 0.245

**Q.** Which “log2 ratio” value does the source give for HECTD1 C369 (UniProt Q9ULT8) here?
**A.** inactive: 0.152

**Q.** NOP58 C106 (UniProt Q9Y2X3) was tested. Which “log2 ratio” value did it give?
**A.** inactive: 0.686

**Q.** For NOP16 C36 (UniProt Q9Y3C1), which “log2 ratio” value is on record?
**A.** active: 1.12

**Q.** How did the “log2 ratio” value turn out when GTF3C4 C129 (UniProt Q9UKN8) was run?
**A.** inactive: 0.717

**Q.** With RRP7A C82 (UniProt Q9Y3A4) as the target, how does the “log2 ratio” value read?
**A.** inactive: 0.831

**Q.** Which “log2 ratio” value does the source give for CHORDC1 C59 (UniProt Q9UHD1) here?
**A.** inactive: -0.0978

**Q.** For PRPF19 C298 (UniProt Q9UMS4), which “log2 ratio” value is on record?
**A.** inactive: 0.134

**Q.** SHPK C105 (UniProt Q9UHJ6) was tested. Which “log2 ratio” value did it give?
**A.** inactive: 0.353

**Q.** How did the “log2 ratio” value turn out when MYO6 C1236 (UniProt Q9UM54) was run?
**A.** inactive: 0.0604

**Q.** Which “log2 ratio” value does the source give for DDX20 C538 (UniProt Q9UHI6) here?
**A.** inactive: 0.312

**Q.** For UniProt Q9Y224_C19, which “log2 ratio” value is on record?
**A.** inactive: -0.00633

**Q.** With MYO6 C691 (UniProt Q9UM54) as the target, how does the “log2 ratio” value read?
**A.** inactive: -0.347

**Q.** GTF3C4 C817 (UniProt Q9UKN8) was tested. Which “log2 ratio” value did it give?
**A.** inactive: 0.219

**Q.** For TRMT6 C492 (UniProt Q9UJA5), which “log2 ratio” value is on record?
**A.** inactive: 0.642

**Q.** For NOSIP C8 (UniProt Q9Y314), which “log2 ratio” value is on record?
**A.** inactive: 0.701

**Q.** For SRRM2 C872 (UniProt Q9UQ35), which “log2 ratio” value is on record?
**A.** inactive: 0.645

**Q.** Which “log2 ratio” value does the source give for AK6 C53 (UniProt Q9Y3D8) here?
**A.** inactive: 0.109

**Q.** With TBC1D24 C8 (UniProt Q9ULP9) as the target, how does the “log2 ratio” value read?
**A.** inactive: 0.177

**Q.** With BAZ1B C953 (UniProt Q9UIG0) as the target, how does the “log2 ratio” value read?
**A.** active: 1.28

**Q.** For CPSF3 C498 (UniProt Q9UKF6), which “log2 ratio” value is on record?
**A.** inactive: 0.546

**Q.** With NCKAP1 C599 (UniProt Q9Y2A7) as the target, how does the “log2 ratio” value read?
**A.** inactive: -0.0856

**Q.** Which “log2 ratio” value does the source give for RASAL2 C333 (UniProt Q9UJF2) here?
**A.** inactive: 0.326

**Q.** With UniProt Q9Y3B4_C83 as the target, how does the “log2 ratio” value read?
**A.** inactive: 0.2

**Q.** MRPS16 C26 (UniProt Q9Y3D3) was tested. Which “log2 ratio” value did it give?
**A.** inactive: 0.271

**Q.** How did the “log2 ratio” value turn out when MTO1 C77 (UniProt Q9Y2Z2) was run?
**A.** inactive: 0.833

**Q.** For GSTK1 C176 (UniProt Q9Y2Q3), which “log2 ratio” value is on record?
**A.** inactive: 0.387

**Q.** How did the “log2 ratio” value turn out when EXO1 C608 (UniProt Q9UQ84) was run?
**A.** inactive: 0.283

**Q.** Which “log2 ratio” value does the source give for MSRB2 C45 (UniProt Q9Y3D2) here?
**A.** inactive: -0.132

**Q.** How did the “log2 ratio” value turn out when MTF2 C437 (UniProt Q9Y483) was run?
**A.** inactive: 0.686

**Q.** Which “log2 ratio” value does the source give for NUP50 C165 (UniProt Q9UKX7) here?
**A.** inactive: 0.249

**Q.** How did the “log2 ratio” value turn out when ACOT9 C299 (UniProt Q9Y305) was run?
**A.** inactive: -0.0311

**Q.** How did the “log2 ratio” value turn out when UniProt Q9UPN7_C689 was run?
**A.** inactive: 0.174

**Q.** LNPEP C35 (UniProt Q9UIQ6) was tested. Which “log2 ratio” value did it give?
**A.** inactive: 0.283

**Q.** UniProt Q9UHD8_C248 was tested. Which “log2 ratio” value did it give?
**A.** inactive: 0.218

**Q.** How did the “log2 ratio” value turn out when PLCL2 C90 (UniProt Q9UPR0) was run?
**A.** inactive: 0.408

**Q.** BAZ1B C1045 (UniProt Q9UIG0) was tested. Which “log2 ratio” value did it give?
**A.** inactive: 0.519
